Laboratory results from a melting point compilation (Tetko et al.; mined from patent text by program, amines drawn as free bases though some values may be those of a salt).

melting point: 201 °C
Compound: Cc1ccc(C(=O)N[C@H]2CC[C@H](CCN3CCN(c4nccc5c4CCO5)CC3)CC2)cn1
